From PubChem BioAssay AID2685 (National Center for Advancing Translational Sciences (NCATS), 2010)
The other results are listed elsewhere or left out. Further columns of the screen follow, without active or inactive calls. The list favours compounds with an active or inconclusive main result. Words in brackets tell the shape of the fitted curve; partial curves, single points and poor fits give uncertain potencies.

Assay: qHTS Assay for Lipid Storage Modulators in Drosophila S3 Cells;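 on cell number change: cells counted by Cell Tracker Red CMTPX staining in the red channel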
Conditions: BODIPY lipid droplet fluorescence, 18-24 h; for cell number change: measured here: cell count max response, cells fed with added oleic acid
Summary of the method: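 Drosophila S3 cells got compounds at several concentrations plus oleic acid (400 uM solution). Laser-scanning cytometry with 488 nm excitation read lipid droplets at 500-530 nm and cells at 575-640 nm. Percent activity was relative to 20 uM Triacsin C.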

[1] = measured here: lipid fluorescence (Fed channel) AC50, cells fed with added oleic acid
[2] = measured here: cell number channel AC50, cells fed with added oleic acid

SMILES	cell number change	AC50 [1]	AC50 [2]
O=c1onc(-c2cccnc2)n1-c1ccccc1F	-15.6%	0.092 µM [rising, full curve]	
CCOC(=O)Nc1ccc2c(c1)N(C(=O)CCN(CC)CC)c1ccccc1CC2	5.47%		
O=C(CN1CC(c2ccccc2)CC1=O)OCc1ccccc1F (stereo not given)	-7.08%	0.058 µM [falling, full curve, poor fit]	
CCOC(=O)N1CCC(NC(=O)c2cc(C(=O)NC3CCCC3)ccc2CO)CC1	-57.2%	23.1 µM [falling, partial curve]	16.4 µM [falling, partial curve]
Cc1onc(-c2ccccc2Cl)c1C(=O)Nc1c(C)n(C)n(-c2ccccc2)c1=O	-13.5%		
CCCN(CC(=O)Nc1ccccc1OC)Cc1c(O)ccc2ccccc12	10.1%	29.1 µM [rising, single point]	
COc1ccc(S(=O)(=O)n2nc(C)cc2C)c(C)c1C			0.0651 µM [rising, full curve, poor fit]
COc1cccc2cc(/C(=N/O)c3ccc(Br)cc3)oc12	-46.1%	11.2 µM [falling, partial curve]	0.447 µM [falling, full curve, poor fit]
N#Cc1ccccc1CN1C(=O)S/C(=C/c2cccn2-c2ccc(C(=O)O)cc2)C1=O	12.7%	32.6 µM [rising, single point]	
CCOC(=O)c1sc(NC(=O)CSc2nccn2C)nc1C		0.00517 µM [rising, full curve, poor fit]	
COc1ccc(CNC(=O)Cn2ccc(N)nc2=O)cc1	31.7%	1.16 µM [rising, single point]	0.092 µM [falling, single point]
Cc1cccc(S(=O)(=O)NCCC(=O)OC(C)C(=O)NC(=O)NC2CCCCC2)c1 (stereo not given)	12.4%	4.11 µM [falling, single point]	
COc1ccc(S(=O)(=O)N2CCN(c3nc(-c4cccnc4)nc4ccccc34)CC2)cc1	2.31%	0.13 µM [rising, full curve, poor fit]	
Cc1ccc(-n2nc3ccc(N)cc3n2)cc1	20.1%	0.731 µM [rising, partial curve]	
C/C(=C\C(=O)O)C(=O)Nc1nccs1	-4.03%		
CN1CCN(CC#Cc2ccccc2)CC1CCO (stereo not given)	15%	0.82 µM [rising, single point]	
CCOC(=O)CN1CC23C=CC(O2)C(C(=O)NC2CCCCCC2)C3C1=O (stereo not given)	14.7%	0.731 µM [falling, full curve]	
CC(=O)Nc1ccc(/C=C/c2nc3ccccc3[nH]c2=O)cc1	-0.833%		
COCCn1nnnc1C(c1ccccc1OC)N1CCN(c2ccccc2F)CC1 (stereo not given)	5.11%	2.06 µM [rising, full curve]	1.84 µM [rising, partial curve]
O=C(NC1CC2CCCC(C1)N2C(=S)Nc1ccc(Cl)cc1)C1CC1 (stereo not given)	-2.5%		

Part of the list above in order of length of the SMILES, largest number first.
SMILES	cell number change	AC50 [1]	AC50 [2]
CCOC(=O)N1CCC(NC(=O)c2cc(C(=O)NC3CCCC3)ccc2CO)CC1	-57.2%	23.1 µM [falling, partial curve]	16.4 µM [falling, partial curve]
COc1cccc2cc(/C(=N/O)c3ccc(Br)cc3)oc12	-46.1%	11.2 µM [falling, partial curve]	0.447 µM [falling, full curve, poor fit]
O=C(CN1CC(c2ccccc2)CC1=O)OCc1ccccc1F (stereo not given)	-7.08%	0.058 µM [falling, full curve, poor fit]	

Continuation.

SMILES	cell number change	AC50 [1]	AC50 [2]
O=C(C1CCCN(Cc2ccc3c(c2)OCO3)C1)N1CCCC1 (stereo not given)	-20%	0.326 µM [falling, full curve, poor fit]	
COC(=O)Cn1c(CN2CCOCC2)nc2c1c(=O)[nH]c(=O)n2C	-62.4%		7.31 µM [falling, single point]
O=C(/C=C/c1ccco1)c1cccnc1	-4.76%	0.13 µM [falling, full curve, poor fit]	
Cc1ccc(S(=O)(=O)NCCC(c2ccccc2)c2ccco2)cc1 (stereo not given)	-10.6%	4.61 µM [falling, partial curve]	
N#C/C(=C\c1ccc(Sc2ccc(Cl)cc2)o1)c1nc2ccccc2[nH]1	-26.6%	16.4 µM [falling, single point]	
Cc1ccc(S(=O)(=O)N2CCC(=O)N(CCOCc3ccc(Cl)cc3)CC2)cc1	13.6%	7.31 µM [rising, partial curve]	
O=C(OCC#CCSc1nc2ccccc2o1)c1cc2ccccc2o1	15.4%	5.8 µM [rising, partial curve, poor fit]	
O=C(CN1C(=O)/C(=C/c2ccccc2)SC1=S)NC1C=CS(=O)(=O)C1 (stereo not given)	24.8%	29.1 µM [falling, single point]	
Cc1onc(-c2ccccc2)c1C(=O)Nc1nc(-c2cc(F)ccc2F)cs1	4.51%	11.6 µM [rising, partial curve]	
O=C(N/N=C\c1ccc([N+](=O)[O-])s1)C1COc2ccccc2O1 (stereo not given)	-53.8%	35.5 µM [falling, single point]	35.5 µM [falling, single point]
CCCCOc1ccccc1NC(=O)C=C(C)C	7.66%	5.17 µM [rising, partial curve]	
CC1C=CCC2C(=O)N(c3cccc(C(=O)Nc4ccc(F)cc4)c3)C(=O)C12 (stereo not given)		29.1 µM [falling, partial curve, poor fit]	
CCC(CO)Oc1cc(NC(=O)c2ccccc2)c2ncn(C(C)C)c2c1 (stereo not given)	-8.78%	0.184 µM [falling, full curve]	
O=c1[nH]c(SCc2ccccc2[N+](=O)[O-])nc2nc[nH]c12	23%	10.3 µM [rising, partial curve]	
Cn1nc(CC(=O)Nc2cccnc2N2CCOCC2)c2ccccc2c1=O	2.44%		
CC1=C(C(=O)Nc2ccccc2)C(c2ccc(C)cc2)N=C(Nc2nc3ccccc3o2)N1 (stereo not given)	-1.76%		
CCCn1c(=O)c(C(=O)NCCc2ccc(OC)cc2)c(O)c2ccccc21	6.08%	14.6 µM [rising, partial curve]	
COC(=O)c1c(-c2ccc(OC)cc2)sc2ccccc12	-20.7%	0.517 µM [falling, full curve]	
COc1cc(/C=N/NC(=O)c2cccnc2)ccc1OC(=O)c1cc(OC)c(OC)c(OC)c1	-0.87%	29.1 µM [rising, single point]	
CC1CCCC(NC(=O)CN2CCN(S(=O)(=O)c3ccc(Br)s3)CC2)C1C (stereo not given)	-52.9%		23.1 µM [falling, partial curve]
